# Experimental data reported in publication PMC12040169 (PLOS Biology, 2025).
# The list shows a part of the results.
# System: T1, CTL2-GFP (C. trachomatis L2/434/Bu, GFP-expressing)
# T1 construct: L2/434/Bu, GFP-expressing
# Set-up: species or system HeLa; Intracellular C. trachomatis growth in HeLa cells, bulk GFP fluorescence relative to DMSO
# Details: bulk GFP, single well; 28.5 h, 10 µM; inhibitor
row,Structure (SMILES),% of control remaining
1,Cc1ccc(N(CC(=O)Nc2ccc(S(=O)(=O)N3CCCCC3)cc2)S(C)(=O)=O)c(C)c1 [CBK263981],86.3953%
2,O=C(COc1ccc([N+](=O)[O-])cc1)N/N=C/c1cc(Br)cc(Br)c1O [CBK262094],78.0809%
3,Nc1nc2cccnc2cc1-c1ccc2c(c1)OCCCO2 [CBK081201],130.959%
4,CCOc1cc(/C=N/Nc2nncn2N)cc(I)c1O [CBK027879],122.891%
5,O=C(NC1CCCC1)c1ccc(-c2cnc3[nH]c(=O)n(C4CCCCC4)c3n2)cc1 [CBK064582],82.8224%
6,c1ccc(-c2nnc(C3CCNCC3)[nH]2)nc1 [CBK288629G],127.976%
7,C[C@@H](c1ccccc1)n1c(=O)[nH]c2ncc(-c3cccc4cccnc34)nc21 [CBK064199],185.389%
8,CC(C)c1ccc(NS(=O)(=O)c2cc3c(N4CCNCC4)nccc3s2)cc1 [CBK038104C],104.618%
9,Cn1cc(CN2CCC(C(=O)NC(c3ccc4c(c3)OCO4)c3ccccn3)CC2)c2ccccc21 (stereo not drawn) [CBK148183],168.107%
10,CCOC(=O)c1cn(CC)c2cc(N3CCCC3)c(F)cc2c1=O [CBK307169],128.764%
11,Cn1c(SCc2ccc([N+](=O)[O-])cc2)nnc1C(O)c1ccccc1 (stereo not drawn) [CBK269735],138.695%
12,O=C(O)c1ccc(NS(=O)(=O)c2cc(Br)c(Cl)s2)cc1 [CBK034049],87.58%
13,COc1cccc([C@H]2CN(C(=O)c3ccccc3)[C@@H]3CCN(Cc4ccccc4C)C[C@H]23)c1 [CBK285610],88.2165%
14,CC(C)(C)OC(=O)N1CCCC(C(=O)NCc2ccco2)C1 (stereo not drawn) [CBK305102],145.333%
15,O=C(O)CCC(=O)Nc1cccc2ccccc12 [CBK260889],111.052%
16,O=C(CSc1nnc2sc3ccccc3n12)N1c2ccccc2Sc2ccccc21 [CBK265457],121.688%
17,Cc1cc(C)n(CC(O)CN(Cc2ccccc2)Cc2ccco2)n1 (stereo not drawn) [CBK282957],148.831%
18,CC(C)(C)c1cc(CCC(c2cc(C(C)(C)C)c(O)c(C(C)(C)C)c2)c2cc(C(C)(C)C)c(O)c(C(C)(C)C)c2)cc(C(C)(C)C)c1O [CBK261271],104.139%
19,Cc1noc2nc(-c3ccco3)cc(C(=O)N(C)CCOc3ccccc3)c12 [CBK295623],103.539%
20,O=C(c1cccnc1)C1CCN(C(=O)c2cccs2)CC1 [CBK283528],86.731%
21,CC(=O)c1ccc(S(=O)(=O)Nc2ccc(C)cc2)cc1 [CBK045380],98.7196%
22,CC(=O)Nc1cccc(-c2cnc(N)c(NC3CCOCC3)n2)c1 [CBK063845],96.9%
23,O=C(CSCc1ccc(Br)cc1)Nc1cccnc1 [CBK268543],108.381%
24,CN(C)CC1CCCCN1C(=O)C1CC2C=CC1C21CC1 (stereo not drawn) [CBK282085],111.925%
25,COc1ccccc1-c1cnn2c(NCC3CCCO3)cc(C)nc12 (stereo not drawn) [CBK304529],147.123%
26,CC1CCN(C(=O)[C@@H]2CN(C)C[C@]23CCc2ccccc2C3=O)CC1 [CBK284589],108.53%

# Looked up above.
# % of control remaining, `O=C(NC1CCCC1)c1ccc(-c2cnc3[nH]c(=O)n(C4CCCCC4)c3n2)cc1` [CBK064582] reads 82.8224%
# % of control remaining, `O=C(O)c1ccc(NS(=O)(=O)c2cc(Br)c(Cl)s2)cc1` [CBK034049] reads 87.58%

# Additional entries:

row,Structure (SMILES),% of control remaining
1,O=C(Nc1cccc2ccccc12)N1CCN(Cc2ccc3c(c2)OCO3)CC1 [CBK074747],85.886%
2,CSCC(=O)N[C@H]1CCN2C(=O)N(c3cccc(C(C)=O)c3)C(=O)[C@@H]2C1 [CBK289546],109.473%
3,O=c1[nH]c2ccc(S(=O)(=O)Nc3ccc(-c4ccccc4)cc3)cc2[nH]1 [CBK266999],106.691%
4,Cc1cc(C2CCCCCN2C(=O)c2c(C)noc2C)no1 (stereo not drawn) [CBK284845],128.12%
5,c1ccc(OCCNc2nccnc2N2CCNCC2)cc1 [CBK013527],87.2747%
6,CN(C)CC(C)(C)CNC(=O)c1cnc2cc(C(F)(F)F)ccc2c1O [CBK107427],88.7393%
7,Cc1ccc2nc(CN3CCC(CNc4ccccn4)C3)cc(=O)n2c1 (stereo not drawn) [CBK306340],143.228%
8,COc1cccc(C(=O)Nc2nc(-c3ccc(C(C)C)cc3)cs2)c1 [CBK101110],108.953%
9,OC1CCn2c1nc1cc(Cl)ccc12 (stereo not drawn) [CBK113623],115.917%
10,O=C(O)c1ccc2[nH]c(=O)[nH]c2c1 [CBK032631],164.93%
11,Cn1nc(C2CCN(Cc3ccccc3)CC2)c2cccnc21 [CBK285095],120.758%
12,COC(=O)c1ccc(CNc2nc(OC)cc(OC)n2)cc1 [CBK093391],108.106%
13,O=C(c1ccncc1)N1CCCC1(CO)Cc1ccccc1 (stereo not drawn) [CBK288620],123.955%
14,O=C1N[C@@]2(CC3CCC2CC3C(=O)NC2CC2)Nc2ccccc21 (stereo partly drawn) [CBK284454],123.506%
15,O=C(O)c1cccc2c1C(=O)N(Cc1ccc(F)cc1)C2 [CBK291183],152.618%
16,COc1ccc(N2C(N)=C(C#N)C(c3cccc(OC(C)C)c3)C3=C2CCS3(=O)=O)cc1 (stereo not drawn) [CBK293992],158.907%
17,CC(=O)c1ccc(CN2CCCN(S(=O)(=O)c3ccc(C(F)(F)F)cc3Cl)CC2)cc1 [CBK063106],81.7795%
18,CC(Cc1nc(-c2ccnn2C)cs1)n1cc(Cl)cn1 (stereo not drawn) [CBK304152],106.846%
19,O=C(O)CS(=O)(=O)c1ccc(Cl)cc1 [CBK262036G],113.223%
20,Clc1ccc(OCCOc2cncc(N3CCCC3)n2)cc1 [CBK115668],103.165%
21,O=C(CN1CCCC1)N1CCCC1c1nc2ccccc2[nH]1 (stereo not drawn) [CBK284003],114.058%
22,CC(C)(C)OC(=O)N1CCN(C(=O)c2cc(-c3cccnc3)on2)CC1 [CBK305648],94.9377%
23,CCN1CCN(c2ccc(NC(=S)NC(=O)c3ccccc3Br)cc2)CC1 [CBK268583],86.7912%
24,Cc1ccc(S(=O)(=O)c2cccc(S(=O)(=O)N3CCOCC3)c2)cc1S(=O)(=O)N1CCOCC1 [CBK262117],93.2278%
25,Cc1ncsc1CCOc1nccnc1NC(C)C [CBK115728],161.436%
26,CCOc1cc(OCC)cc(C(=O)N2CCC3(CC2)NC(=O)c2cc(I)ccc2O3)c1 [CBK166301],122.12%

row,Structure (SMILES),% of control remaining
1,CN(CCN1CCCCC1)C(=O)C1(c2ccc(F)cc2)CC1 [CBK282178],116.25%
2,O=C(O)c1ccc(/C=C/C(=O)c2ccc3c(c2)OCCO3)cc1 [CBK262173],106.551%
3,COc1ccc(C2CC(=O)C3=C(C2)NC(C)=C(C#N)C3c2cccc(F)c2)cc1 (stereo not drawn) [CBK293922],158.536%
4,O=C(COc1nc2cc3c(nc2o1)CCC3)c1ccccc1 [CBK269407],128.106%
5,CC(Cn1cccn1)C(=O)Nc1cccc(N2CCCC2)c1 (stereo not drawn) [CBK283249],135.152%
6,CN(C)Cc1c(O)ccc2occ(C(=O)c3cccs3)c12 [CBK261959C],119.017%
7,O=S(=O)(c1cccs1)N1CCC2(CC1)OCCO2 [CBK057295],95.3298%
8,CN(CC(=O)NCc1ccc(Cl)cc1)S(=O)(=O)Cc1ccc(C#N)cc1 [CBK305899],128.856%
9,CCn1cc(CN(CCCN(C)C)Cc2ccc(C)o2)c(C)n1 [CBK283201],139.332%
10,Cn1nccc1C(=O)NC(Cc1ccsc1)c1nccs1 (stereo not drawn) [CBK285138],122.989%
11,O=C(Cn1ncc2cccn2c1=O)OC1CCCCC1 [CBK283667],120.555%
12,COCCNc1nc(-c2cc(C(C)C)ccc2OC)ccc1C(=O)Nc1cccc(OC)c1 [CBK105904],101.352%
13,Cc1cccc(C(=O)Nc2ccc(-c3nnc(-c4ccc(NC(=O)c5cccc(C)c5)cc4)o3)cc2)c1 [CBK261603],109.914%
14,COc1ccc(-c2noc(CNC(=O)Nc3ccccc3)n2)cc1OC [CBK269900],148.983%
15,O=C(O)c1ccc(N2C(=O)C(=Cc3c4ccccc4cc4ccccc34)SC2=S)cc1 [CBK296101],140.57%
16,O=C(NCCOCc1ccc(Cl)cc1)c1cc(-n2cnnc2)ccc1Cl [CBK267939],118.943%
17,O=C(CSc1ncccc1C(=O)O)Nc1nnc(Cc2ccccc2)s1 [CBK299835],127.189%
18,N#Cc1ccccc1NC(=O)CSc1nc2cc(Cl)ccc2[nH]1 [CBK270019],57.9566%
19,Cc1cc(NS(=O)(=O)c2cc(C(=O)O)c(Cl)cc2F)n(C)n1 [CBK067260],105.279%
20,CCCn1ncc(CN[C@@H]2CCC[C@H]2Cc2cc(C)no2)c1C [CBK282948],117.266%
21,COc1ccc2c(c1)cc(C(=O)N(C)CCCn1nc(C)cc1C)n2C [CBK307196],129.842%
22,Cc1nn(-c2ccc(F)cc2)c2c1C(c1ccc(C(=O)O)cc1)CC(=O)N2 (stereo not drawn) [CBK286561],101.925%
23,COc1cc2c(cc1CNC1CCCc3c1cnn3C)OC(C)C2 (stereo not drawn) [CBK304296C],95.6832%
24,O=C1NC2(CCN(C(=O)CC3c4ccccc4Oc4ccccc43)CC2)Nc2ccccc21 [CBK286307],63.4876%
25,O=C(O)C[C@@H]1CCN(C(=O)NCc2ccccc2)C[C@@H]1CC1=NCCc2ccccc21 [CBK289161],135.907%
26,Cc1cccc(C(=O)NCc2nnc(SCC(=O)N3CCOCC3)n2C)c1 [CBK269723],119.381%

# 2 neighbouring compounds from above, quoted:
row,Structure (SMILES),% of control remaining
3,O=c1[nH]c2ccc(S(=O)(=O)Nc3ccc(-c4ccccc4)cc3)cc2[nH]1 [CBK266999],106.691%
4,Cc1cc(C2CCCCCN2C(=O)c2c(C)noc2C)no1 (stereo not drawn) [CBK284845],128.12%
